From publication PMC11330527, “Structure and dimerization properties of the plant-specific copper chaperone CCH” (Scientific Reports, 2024)
No constants are given. Whether binding was seen depends on the method and setting.

Target: CCHΔ, truncation mutant of CCH lacking the C-terminal extension (Arabidopsis thaliana) (UniProt O82089)
Assay: condition: only both copies preloaded with copper (unlabeled chaperone 1.5 to 6.25 µM); MST; both copies preloaded with copper; labeled chaperone 20 nM, unlabeled chaperone 1.5 to 6.25 µM; 300 mM NaCl, 50 mM HEPES, 0.05% Tween-20, pH 7.5; room temperature; both purified

binding: no binding
B1: CCHΔ, truncation mutant of CCH lacking the C-terminal extension (domain or fragment, UniProt O82089 1-70)
chain: MAQTVVLKVGMSCQGCVGAVNRVLGKMEGVESFDIDIKEQKVTVKGNVEPEAVFQTVSKTGKKTSYWPVE
modifications: Alexa Fluor 488 NHS ester on amines (only the labeled copy in MST)
